Results on 34 targets are retold here after the supplement of paper PMC12067093, “Discovery and optimisation of a covalent ligand for TRIM25 and its application to targeted protein ubiquitination” (Chemical Science, 2025).

By UniProt entry, the sequences of proteins in these tests, tags left out. Where a name states a change or a piece, a line headed by the entry shows the natural chain unless it says otherwise.
UniProt P11586, whole entry, looked up: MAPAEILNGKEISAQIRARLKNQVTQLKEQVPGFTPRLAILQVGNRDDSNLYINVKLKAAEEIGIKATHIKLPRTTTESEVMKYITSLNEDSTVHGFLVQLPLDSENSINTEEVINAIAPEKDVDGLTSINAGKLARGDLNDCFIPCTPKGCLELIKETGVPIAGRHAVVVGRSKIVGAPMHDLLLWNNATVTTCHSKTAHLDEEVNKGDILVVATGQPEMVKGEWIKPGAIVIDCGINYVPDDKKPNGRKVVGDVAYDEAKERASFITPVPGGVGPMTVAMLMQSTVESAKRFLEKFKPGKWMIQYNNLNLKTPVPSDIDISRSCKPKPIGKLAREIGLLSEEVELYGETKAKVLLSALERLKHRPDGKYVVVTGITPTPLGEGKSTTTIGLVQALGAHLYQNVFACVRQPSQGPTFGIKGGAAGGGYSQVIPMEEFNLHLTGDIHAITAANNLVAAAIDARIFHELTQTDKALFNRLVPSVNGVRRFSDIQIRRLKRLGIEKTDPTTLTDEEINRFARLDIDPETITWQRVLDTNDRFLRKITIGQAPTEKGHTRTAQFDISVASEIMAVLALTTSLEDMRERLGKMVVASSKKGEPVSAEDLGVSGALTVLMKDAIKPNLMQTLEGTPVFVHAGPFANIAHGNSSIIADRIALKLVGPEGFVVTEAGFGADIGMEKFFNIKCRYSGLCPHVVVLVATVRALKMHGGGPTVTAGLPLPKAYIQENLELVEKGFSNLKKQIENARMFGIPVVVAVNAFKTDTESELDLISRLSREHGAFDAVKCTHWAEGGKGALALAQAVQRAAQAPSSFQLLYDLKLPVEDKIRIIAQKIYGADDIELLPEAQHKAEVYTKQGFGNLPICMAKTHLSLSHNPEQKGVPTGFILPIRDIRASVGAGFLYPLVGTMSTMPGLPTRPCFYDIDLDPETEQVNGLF
UniProt P42285: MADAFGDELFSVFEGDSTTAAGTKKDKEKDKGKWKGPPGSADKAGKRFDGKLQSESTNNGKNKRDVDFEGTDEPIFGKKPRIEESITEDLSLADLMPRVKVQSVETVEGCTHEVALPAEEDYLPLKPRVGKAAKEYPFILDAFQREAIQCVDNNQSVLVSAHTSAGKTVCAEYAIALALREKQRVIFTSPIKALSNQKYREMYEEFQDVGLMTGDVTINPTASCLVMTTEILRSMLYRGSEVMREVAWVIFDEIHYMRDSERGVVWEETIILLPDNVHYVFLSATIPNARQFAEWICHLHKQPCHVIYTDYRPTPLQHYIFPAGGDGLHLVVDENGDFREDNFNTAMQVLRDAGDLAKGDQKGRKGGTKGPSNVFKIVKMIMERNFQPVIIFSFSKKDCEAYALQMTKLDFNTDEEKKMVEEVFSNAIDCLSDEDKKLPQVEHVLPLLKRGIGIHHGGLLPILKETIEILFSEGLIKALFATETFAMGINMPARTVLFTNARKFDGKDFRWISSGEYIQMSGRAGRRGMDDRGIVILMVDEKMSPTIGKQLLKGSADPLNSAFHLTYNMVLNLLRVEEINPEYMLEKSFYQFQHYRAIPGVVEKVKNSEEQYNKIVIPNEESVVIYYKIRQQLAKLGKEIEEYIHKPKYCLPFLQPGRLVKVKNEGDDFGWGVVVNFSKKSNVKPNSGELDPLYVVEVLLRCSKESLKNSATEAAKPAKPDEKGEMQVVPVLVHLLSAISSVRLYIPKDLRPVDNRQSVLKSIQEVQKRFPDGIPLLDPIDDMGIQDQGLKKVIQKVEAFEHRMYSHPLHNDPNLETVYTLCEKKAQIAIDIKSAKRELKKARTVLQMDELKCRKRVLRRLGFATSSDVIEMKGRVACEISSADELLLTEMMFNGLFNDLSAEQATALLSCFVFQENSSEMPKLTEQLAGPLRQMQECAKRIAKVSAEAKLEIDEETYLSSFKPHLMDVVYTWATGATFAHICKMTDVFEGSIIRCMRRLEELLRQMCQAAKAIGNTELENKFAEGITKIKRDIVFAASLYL
UniProt P35579, whole entry, looked up: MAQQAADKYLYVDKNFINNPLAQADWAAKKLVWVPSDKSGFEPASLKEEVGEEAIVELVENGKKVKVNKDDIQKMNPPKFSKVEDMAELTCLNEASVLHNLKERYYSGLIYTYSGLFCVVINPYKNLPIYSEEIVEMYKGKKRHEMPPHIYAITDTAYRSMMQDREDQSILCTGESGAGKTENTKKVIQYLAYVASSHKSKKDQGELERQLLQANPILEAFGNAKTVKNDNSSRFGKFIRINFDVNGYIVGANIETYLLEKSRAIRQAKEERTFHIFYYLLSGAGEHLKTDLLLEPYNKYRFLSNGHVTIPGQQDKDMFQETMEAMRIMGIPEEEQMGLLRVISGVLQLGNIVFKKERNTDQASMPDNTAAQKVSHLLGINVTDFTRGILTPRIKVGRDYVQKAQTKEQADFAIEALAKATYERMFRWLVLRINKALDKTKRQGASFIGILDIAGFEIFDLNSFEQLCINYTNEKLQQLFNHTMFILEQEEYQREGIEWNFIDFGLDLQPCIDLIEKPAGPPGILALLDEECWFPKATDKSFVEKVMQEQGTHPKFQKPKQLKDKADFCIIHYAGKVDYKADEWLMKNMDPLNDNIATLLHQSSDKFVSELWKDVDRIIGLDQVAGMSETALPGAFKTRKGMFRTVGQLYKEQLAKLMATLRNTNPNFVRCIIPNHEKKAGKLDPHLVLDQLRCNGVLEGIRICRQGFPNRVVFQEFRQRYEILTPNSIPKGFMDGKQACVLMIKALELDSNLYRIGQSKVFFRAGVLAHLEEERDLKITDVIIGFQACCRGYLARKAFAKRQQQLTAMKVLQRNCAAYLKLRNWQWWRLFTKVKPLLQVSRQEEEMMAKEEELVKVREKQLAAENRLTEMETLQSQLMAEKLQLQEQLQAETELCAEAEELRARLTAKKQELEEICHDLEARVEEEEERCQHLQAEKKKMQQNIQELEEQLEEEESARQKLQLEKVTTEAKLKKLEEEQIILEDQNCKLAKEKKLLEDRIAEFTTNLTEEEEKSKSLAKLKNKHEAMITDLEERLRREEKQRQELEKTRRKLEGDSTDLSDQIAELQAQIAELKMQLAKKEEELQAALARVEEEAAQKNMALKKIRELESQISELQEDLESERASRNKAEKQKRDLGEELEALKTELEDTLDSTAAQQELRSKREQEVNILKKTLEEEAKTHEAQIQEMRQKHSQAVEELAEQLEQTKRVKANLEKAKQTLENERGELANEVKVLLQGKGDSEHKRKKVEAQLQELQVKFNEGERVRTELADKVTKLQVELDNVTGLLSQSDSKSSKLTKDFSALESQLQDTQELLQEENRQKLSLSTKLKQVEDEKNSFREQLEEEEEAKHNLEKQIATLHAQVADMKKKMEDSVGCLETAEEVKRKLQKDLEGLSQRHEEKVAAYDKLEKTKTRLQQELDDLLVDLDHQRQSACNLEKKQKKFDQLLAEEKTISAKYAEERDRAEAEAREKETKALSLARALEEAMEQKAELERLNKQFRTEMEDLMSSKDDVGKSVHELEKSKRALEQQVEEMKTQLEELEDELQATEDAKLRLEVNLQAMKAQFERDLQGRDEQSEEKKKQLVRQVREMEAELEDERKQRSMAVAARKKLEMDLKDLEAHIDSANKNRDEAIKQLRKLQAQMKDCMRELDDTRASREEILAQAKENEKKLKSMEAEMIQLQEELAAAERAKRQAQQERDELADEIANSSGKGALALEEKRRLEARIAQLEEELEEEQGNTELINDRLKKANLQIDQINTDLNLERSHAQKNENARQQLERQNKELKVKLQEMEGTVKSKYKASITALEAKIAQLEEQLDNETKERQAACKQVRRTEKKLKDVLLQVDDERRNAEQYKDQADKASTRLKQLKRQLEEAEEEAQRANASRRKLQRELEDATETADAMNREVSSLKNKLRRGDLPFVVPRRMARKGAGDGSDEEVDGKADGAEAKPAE
UniProt Q9BQG0: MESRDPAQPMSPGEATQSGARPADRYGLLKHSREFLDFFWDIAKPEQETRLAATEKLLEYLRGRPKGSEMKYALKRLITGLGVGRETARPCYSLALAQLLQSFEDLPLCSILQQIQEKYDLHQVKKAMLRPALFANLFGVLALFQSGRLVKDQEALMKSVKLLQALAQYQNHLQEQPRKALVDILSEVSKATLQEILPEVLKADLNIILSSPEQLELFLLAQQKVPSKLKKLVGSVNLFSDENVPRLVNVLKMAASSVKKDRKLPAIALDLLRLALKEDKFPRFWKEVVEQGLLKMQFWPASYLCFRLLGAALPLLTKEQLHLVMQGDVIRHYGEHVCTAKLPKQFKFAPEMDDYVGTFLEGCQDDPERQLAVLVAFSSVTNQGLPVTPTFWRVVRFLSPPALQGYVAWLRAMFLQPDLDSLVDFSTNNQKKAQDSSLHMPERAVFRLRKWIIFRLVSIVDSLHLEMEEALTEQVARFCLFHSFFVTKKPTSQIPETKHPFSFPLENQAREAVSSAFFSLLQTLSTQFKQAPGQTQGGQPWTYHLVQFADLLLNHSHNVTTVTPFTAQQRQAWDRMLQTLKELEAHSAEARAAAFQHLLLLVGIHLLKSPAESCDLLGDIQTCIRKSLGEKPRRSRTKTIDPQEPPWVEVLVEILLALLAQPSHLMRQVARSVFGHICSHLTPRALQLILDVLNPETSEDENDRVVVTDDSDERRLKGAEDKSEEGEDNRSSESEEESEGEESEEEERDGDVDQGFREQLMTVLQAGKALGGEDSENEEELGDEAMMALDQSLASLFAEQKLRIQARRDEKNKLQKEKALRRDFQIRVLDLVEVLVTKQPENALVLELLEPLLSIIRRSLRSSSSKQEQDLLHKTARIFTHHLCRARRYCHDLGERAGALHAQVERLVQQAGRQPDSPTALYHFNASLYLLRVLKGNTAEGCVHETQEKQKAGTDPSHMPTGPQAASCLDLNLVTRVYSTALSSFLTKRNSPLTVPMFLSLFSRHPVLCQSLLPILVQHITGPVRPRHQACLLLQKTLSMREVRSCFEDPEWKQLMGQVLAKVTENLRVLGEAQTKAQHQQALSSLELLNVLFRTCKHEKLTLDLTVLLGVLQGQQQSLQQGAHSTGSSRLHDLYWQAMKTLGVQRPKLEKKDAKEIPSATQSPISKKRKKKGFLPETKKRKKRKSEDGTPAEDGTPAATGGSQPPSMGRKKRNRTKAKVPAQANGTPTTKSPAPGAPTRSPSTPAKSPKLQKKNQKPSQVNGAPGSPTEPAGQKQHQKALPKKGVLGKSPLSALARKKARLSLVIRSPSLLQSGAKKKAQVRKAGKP
UniProt P10244: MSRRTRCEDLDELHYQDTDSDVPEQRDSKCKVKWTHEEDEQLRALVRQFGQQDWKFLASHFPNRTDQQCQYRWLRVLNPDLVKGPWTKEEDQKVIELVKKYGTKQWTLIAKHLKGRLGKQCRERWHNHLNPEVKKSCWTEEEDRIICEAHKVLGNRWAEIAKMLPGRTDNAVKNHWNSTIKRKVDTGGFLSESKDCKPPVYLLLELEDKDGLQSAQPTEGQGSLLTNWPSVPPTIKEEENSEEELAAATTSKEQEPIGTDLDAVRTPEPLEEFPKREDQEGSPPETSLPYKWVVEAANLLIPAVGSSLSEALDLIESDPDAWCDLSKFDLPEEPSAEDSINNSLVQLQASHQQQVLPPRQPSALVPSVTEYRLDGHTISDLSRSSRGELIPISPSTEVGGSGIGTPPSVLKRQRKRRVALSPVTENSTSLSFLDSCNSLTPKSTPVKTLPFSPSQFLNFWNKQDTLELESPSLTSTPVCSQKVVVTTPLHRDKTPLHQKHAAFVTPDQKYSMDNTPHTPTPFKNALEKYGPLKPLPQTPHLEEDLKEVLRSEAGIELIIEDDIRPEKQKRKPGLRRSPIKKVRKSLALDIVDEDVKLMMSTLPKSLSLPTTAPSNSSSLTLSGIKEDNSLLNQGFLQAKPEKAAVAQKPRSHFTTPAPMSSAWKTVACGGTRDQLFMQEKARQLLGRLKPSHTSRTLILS
UniProt Q9NVV4: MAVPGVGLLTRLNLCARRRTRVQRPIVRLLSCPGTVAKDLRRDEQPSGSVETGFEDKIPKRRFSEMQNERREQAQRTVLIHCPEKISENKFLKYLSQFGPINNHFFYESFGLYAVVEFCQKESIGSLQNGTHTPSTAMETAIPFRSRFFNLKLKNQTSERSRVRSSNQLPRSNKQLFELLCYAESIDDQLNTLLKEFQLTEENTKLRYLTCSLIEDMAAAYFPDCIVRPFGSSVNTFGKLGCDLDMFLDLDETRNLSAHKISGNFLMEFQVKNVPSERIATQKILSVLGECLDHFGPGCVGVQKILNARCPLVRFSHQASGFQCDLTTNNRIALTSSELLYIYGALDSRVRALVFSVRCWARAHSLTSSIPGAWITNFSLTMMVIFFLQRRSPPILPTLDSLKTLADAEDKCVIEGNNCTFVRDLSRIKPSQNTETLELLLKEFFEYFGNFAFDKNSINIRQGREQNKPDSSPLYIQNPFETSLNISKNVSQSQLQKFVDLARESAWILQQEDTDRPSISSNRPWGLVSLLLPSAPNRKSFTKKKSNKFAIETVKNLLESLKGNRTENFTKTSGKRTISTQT

Compound in this experiment: Cc1cc(ccc1-c1ccccc1)C(=O)N1CCCN(CC1)C(=O)CCl [compound 10]
Briefly: probe-labelled cysteine peptide fold change vs DMSO (competition) (log2 fold change); higher = less target engagement (more negative = stronger competition). The settings on record: THP-1, incubation time: 4 h.

The other results are listed elsewhere or left out.
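Note: competitive profiling in live THP-1 cells: cysteine peptides tagged with an iodoacetamide desthiobiotin (IA-DTB) probe, intensity after compound treatment relative to DMSO-treated cells.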

For the target “MYCBP2_O75592_4233_LWLALASLCVLDQDHVDR (UniProt O75592)”, the “probe-labelled cysteine peptide fold change” value by setting is: (10 µM) -0.434; (50 µM) -0.331.

In the case of “MTHFD1_P11586_143_GDLNDCFIPCTPK (UniProt P11586)”, the “probe-labelled cysteine peptide fold change” value was -0.047 (10 µM) and -0.0853 (50 µM).

Consider “MTREX_P42285_110_VQSVETVEGCTHEVALPAEEDYLPLKPR (UniProt P42285)”, for which the “probe-labelled cysteine peptide fold change” value (10 µM) was -0.0679 and the “probe-labelled cysteine peptide fold change” value (50 µM) was -0.193.

With “MSH6_P52701_1158+1165_QAGLLAVMAQMGCYVPAEVCR (UniProt P52701)”, the “probe-labelled cysteine peptide fold change” value (10 µM) is -0.235 and the “probe-labelled cysteine peptide fold change” value (50 µM) was -0.185.

With “MYH9_P35579_790_ITDVIIGFQACCR (UniProt P35579)”, the “probe-labelled cysteine peptide fold change” value is, setting by setting: (10 µM) -0.125; (50 µM) -0.23.

Take “MYBBP1A_Q9BQG0_363_FAPEMDDYVGTFLEGCQDDPER (UniProt Q9BQG0)”: the “probe-labelled cysteine peptide fold change” value (10 µM) is -0.153 and the “probe-labelled cysteine peptide fold change” value (50 µM) was determined as 0.257.

Consider “MTRF1_O75570_200_TTGGDICQQFTR (UniProt O75570)”, for which the “probe-labelled cysteine peptide fold change” value by setting is: (10 µM) -0.205; (50 µM) -0.0835.

Turning to “MYCBP2_O75592_4652_QLEGTECPLHVVHPPTGEEFALGCGVCR (UniProt O75592)”, the “probe-labelled cysteine peptide fold change” value by setting is: (10 µM) 0.104; (50 µM) -0.0919.

As to “MTG1_Q9BT17_51_LVDCIIEVHDAR (UniProt Q9BT17)”, the “probe-labelled cysteine peptide fold change” value reads like this: (10 µM) 0.0252; (50 µM) 0.0322.

In the case of “MYCBP2_O75592_3392_MPCLYLQTLAR (UniProt O75592)”, the “probe-labelled cysteine peptide fold change” value by setting is: (10 µM) -0.0844; (50 µM) -0.345.

In the case of “MTFMT_Q96DP5_365_NSQAQPSQCR (UniProt Q96DP5)”, the “probe-labelled cysteine peptide fold change” value (10 µM) was -0.186 and the “probe-labelled cysteine peptide fold change” value (50 µM) is -0.202.

“MTMR3_Q13615_473_CPVFLQWLDCVHQLQR (UniProt Q13615)”: the “probe-labelled cysteine peptide fold change” value (10 µM) is -0.0651 and the “probe-labelled cysteine peptide fold change” value (50 µM) was 0.044.

“MYH9_P35579_896_LQLQEQLQAETELCAEAEELRAR (UniProt P35579)”: the “probe-labelled cysteine peptide fold change” value was 0.0422 (10 µM) and -0.964 (50 µM).

In the case of “MTMR2_Q13614_284_CSQPMVGVSGK (UniProt Q13614)”, the “probe-labelled cysteine peptide fold change” value by setting is: (10 µM) -0.00239; (50 µM) -0.224.

Regarding “MTX2_O75431_189_TLDQVLEDVDQCCQALSQR (UniProt O75431)”, the “probe-labelled cysteine peptide fold change” value by setting is: (10 µM) -0.0127; (50 µM) -0.0536.

For the target “MTHFD1L_Q6UB35_198_GDAHECFVSPVAK (UniProt Q6UB35)”, the “probe-labelled cysteine peptide fold change” value by setting is: (10 µM) -0.0405; (50 µM) -0.0537.

In the case of “MTOR_P42345_1498_CLEALGEWGQLHQQCCEK (UniProt P42345)”, the “probe-labelled cysteine peptide fold change” value (10 µM) was -0.228 and the “probe-labelled cysteine peptide fold change” value (50 µM) is -0.264.

Regarding “MYBL2_P10244_147_SCWTEEEDRIICEAHK (UniProt P10244)”, the “probe-labelled cysteine peptide fold change” value is, setting by setting: (10 µM) 0.166; (50 µM) -0.335.

Take “MYH9_P35579_740_QACVLMIK (UniProt P35579)”: the “probe-labelled cysteine peptide fold change” value by setting is: (10 µM) 0.0307; (50 µM) 0.103.

As for “MTHFD1_P11586_236_GEWIKPGAIVIDCGINYVPDDKKPNGR (UniProt P11586)”, the “probe-labelled cysteine peptide fold change” value runs as follows: (10 µM) -0.116; (50 µM) -1.23.

On to “MRRF_Q96E11_154_SPQLILVNMASFPECTAAAIK (UniProt Q96E11)”, for which the “probe-labelled cysteine peptide fold change” value runs as follows: (10 µM) -0.164; (50 µM) -0.103.

As for “MYBBP1A_Q9BQG0_890_RYCHDLGER (UniProt Q9BQG0)”, the “probe-labelled cysteine peptide fold change” value by setting is: (10 µM) 0.104; (50 µM) 0.125.

Turning to “MTMR9_Q96QG7_30_VDNVVLHRPFYPAVEGTLCLTGHHLILSSR (UniProt Q96QG7)”, the “probe-labelled cysteine peptide fold change” value is, setting by setting: (10 µM) 0.0201; (50 µM) 0.204.

As for “MRTO4_Q9UKD2_176_RGVVTLLSDYEVCK (UniProt Q9UKD2)”, the “probe-labelled cysteine peptide fold change” value is, setting by setting: (10 µM) -0.0117; (50 µM) 0.261.

As to “MTHFD1_P11586_195_IVGAPMHDLLLWNNATVTTCHSK (UniProt P11586)”, the “probe-labelled cysteine peptide fold change” value is, setting by setting: (10 µM) -0.026; (50 µM) -0.278.

Take “MYH9_P35579_1379_MEDSVGCLETAEEVKR (UniProt P35579)”: the “probe-labelled cysteine peptide fold change” value by setting is: (10 µM) 0.0621; (50 µM) -0.256.

With “MTMR9_Q96QG7_285_LVEACNDQTHNMDR (UniProt Q96QG7)”, the “probe-labelled cysteine peptide fold change” value was found to be 0.146 (10 µM) and 0.0601 (50 µM).

With “MTRR_Q9UBK8_64_AIAEEICEQAVVHGFSADLHCISESDKYDLK (UniProt Q9UBK8)”, the “probe-labelled cysteine peptide fold change” value is -0.113 (10 µM) and -0.379 (50 µM).

In the case of “MTREX_P42285_430_MVEEVFSNAIDCLSDEDK (UniProt P42285)”, the “probe-labelled cysteine peptide fold change” value reads like this: (10 µM) 0.159; (50 µM) 0.292.

Take “MTMR14_Q8NCE2_131_FVCPVILFK (UniProt Q8NCE2)”: the “probe-labelled cysteine peptide fold change” value (10 µM) was -0.00849 and the “probe-labelled cysteine peptide fold change” value (50 µM) is -0.0865.

As for “MTPAP_Q9NVV4_299_ILSVLGECLDHFGPGCVGVQK (UniProt Q9NVV4)”, the “probe-labelled cysteine peptide fold change” value was 0.106 (10 µM) and -0.0477 (50 µM).

For the target “MYBPH_Q13203_437_ALSEQGVCTLEIR (UniProt Q13203)”, the “probe-labelled cysteine peptide fold change” value by setting is: (10 µM) -0.0897; (50 µM) 0.208.

Regarding “MTHFD1_P11586_408_STTTIGLVQALGAHLYQNVFACVR (UniProt P11586)”, the “probe-labelled cysteine peptide fold change” value is -0.162 (10 µM) and -0.00951 (50 µM).

Turning to “MTA2_O94776_106_CSVTLLNETDILSQYLEK (UniProt O94776)”, the “probe-labelled cysteine peptide fold change” value runs as follows: (10 µM) 0.183; (50 µM) 0.107.
